## Library screening results

Sequences of proteins named here, by UniProt entry; tags and fusion partners are left off.
UniProt E9BF75, entry or part of it: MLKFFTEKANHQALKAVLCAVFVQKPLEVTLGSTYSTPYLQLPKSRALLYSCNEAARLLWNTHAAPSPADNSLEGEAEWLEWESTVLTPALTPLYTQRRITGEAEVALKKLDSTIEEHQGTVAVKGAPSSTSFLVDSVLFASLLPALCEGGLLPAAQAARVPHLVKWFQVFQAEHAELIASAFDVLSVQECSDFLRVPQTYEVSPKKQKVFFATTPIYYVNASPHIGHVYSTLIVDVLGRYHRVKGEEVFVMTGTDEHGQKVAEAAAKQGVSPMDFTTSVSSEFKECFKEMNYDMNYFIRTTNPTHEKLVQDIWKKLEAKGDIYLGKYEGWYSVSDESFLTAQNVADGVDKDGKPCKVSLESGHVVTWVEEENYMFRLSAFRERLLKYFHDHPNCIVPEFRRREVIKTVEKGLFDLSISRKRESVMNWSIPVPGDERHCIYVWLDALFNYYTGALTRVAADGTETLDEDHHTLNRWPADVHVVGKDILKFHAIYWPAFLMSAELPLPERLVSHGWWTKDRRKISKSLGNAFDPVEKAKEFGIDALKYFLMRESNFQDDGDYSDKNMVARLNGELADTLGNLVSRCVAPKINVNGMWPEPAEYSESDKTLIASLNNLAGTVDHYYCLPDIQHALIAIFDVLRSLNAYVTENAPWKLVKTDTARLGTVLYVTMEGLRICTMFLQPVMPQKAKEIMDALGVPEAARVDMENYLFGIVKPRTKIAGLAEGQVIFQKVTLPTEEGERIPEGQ

LdMetRS: 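Methionyl-tRNA synthetase (putative), Leishmania donovani (UniProt E9BF75). Primary screen of methionyl-tRNA synthetase; the read-out is not stated. The test concentration is not given. Values are per cent inhibition. Size under these conditions: about 68,000 compounds, about 24 of them at 50% or above in at least one test.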
Mtb heat-shock: 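Assay on Mycobacterium tuberculosis, filed only as a heat shock assay from Cornell; the read-out is not stated. The concentration is filed as 10 mM, unlikely as a test dose, so the dose is not known. The record gives no direction; compounds that gave an IC50 in retests scored well above the rest, so higher reads as stronger inhibition. Of about 69,000 compounds tested this way, about 930 (1.4%) reached 50% or more in at least one test.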

All values are in %.
The controls that fix the scale are not given in the record; negative values are as filed.
This is an unselected part of the compounds tested.
A dash means the value is not listed here; it may have been measured.

SMILES,LdMetRS,Mtb heat-shock
CC(C)N1C[C@@H]2OCC(=O)N(Cc3ccccc3)[C@@H]2C1,3.008%,-
COc1cc(N2CC[C@@H]3O[C@@H](C(=O)NC(C)C)C[C@@H]32)ncn1,2.466%,-
Cc1ccc(C(=O)N2CCc3ncccc3C2)cc1N1CCNC1=O,6.145%,5.917%
COc1cnc(CN2CC(=O)N(c3ccc(C)cc3)CC2C)cc1O (stereo not drawn),8.935%,-1.978%
Cc1ccc(Br)c(S(=O)(=O)NCc2ccnn2C)c1,11.11%,-2.56%
O=C(CCc1ccccc1)N1CCn2cc(CN3CCCC3)nc2C1,30.39%,18.85%
Fc1cnc(N2CCO[C@H]3CN(CC4CCOC4)C[C@H]32)nc1 (stereo partly drawn),2.538%,-
C[C@@H]1CN(C(=O)[C@H]2CCCO2)C[C@]12CCN(c1ccsc1)C2=O,4.478%,-2.923%
CC(C)c1nsc(N2CCS(=O)(=O)CC2)n1,12.72%,1.556%
Cc1cc(CN2CC[C@H]3C[C@@H](c4nccs4)O[C@@H]3C2)no1,8.667%,-
COc1ccc(OC)c(CN2CCN(Cc3cscn3)CC2)c1,20.44%,10.34%
COC(=O)Cc1cn2cc(C(F)(F)F)ccc2n1,7.008%,-13.02%
Cn1ccnc1CN(CCCO)C1CCCc2ccccc21 (stereo not drawn),16.9%,-27.75%
O=C(NCc1ccco1)[C@H]1C[C@@H]2CCN(c3ccncn3)C[C@@H]2O1,15.48%,-
Cc1nc2ccc(C(=O)N(CCC#N)CCC#N)cc2nc1C,10.68%,6.7%
c1ccc2[nH]c(C3CCN(Cc4noc(C5CC5)n4)CC3)cc2c1,14.21%,-5.01%
Cc1ccc(C)c2c(C)c(C(=O)NCCC(=O)N3CCOCC3)oc12,17.96%,-7.336%
COc1ccc(-c2cn3c(n2)CO[C@@H](CNCc2nccn2C)C3)cc1,1.017%,4.432%
Cc1ccc(-n2cc(CN3CCOCC(CN(C)C)C3)cn2)cc1C (stereo not drawn),2.128%,-30.87%
COc1cc(C2CC(=O)Nc3c2nc2n3CCCC2)cc(OC)c1O (stereo not drawn),8.447%,-14.04%
Cc1noc(C)c1S(=O)(=O)NCC(C)(O)c1ccc2c(c1)OCO2 (stereo not drawn),4.317%,20.25%
CC(O)CN1CCN(C(=O)c2ccn(-c3ccccc3Cl)n2)CC1 (stereo not drawn),9.639%,-7.907%
COc1ccccc1OC1CCN(C(=O)CCCN2CCOCC2)CC1,12.33%,-33.84%
c1ccc(CO[C@H]2C[C@@H]3CN(Cc4cccnc4)C[C@@H]3C2)cc1,21.86%,-
N#Cc1cccc(CN2CCCC2Cn2cncn2)c1 (stereo not drawn),4.11%,-27.44%
CN(C)c1ccc(C(=O)N2CCN(CC(C)(C)O)CC2)nn1,16.87%,11.74%
[H][C@]12CC[C@]([H])(CN(c3cc(OC)ncn3)C1)N(CC1CCC1)C2=O,-,-13.86%
CC1=Nc2c(c(=O)[nH]n2C2CCCCC2)C(c2cccnc2)S1 (stereo not drawn),11.63%,15.61%
O=C1COC2(CCN(Cc3ccncc3)CC2)CN1CC1CC1,8.511%,-13.01%
CC1c2ncc(COCC3CC3)n2CCN1C(=O)c1ccn(C)n1 (stereo not drawn),9.804%,-10.67%
Cl.Cn1cc([C@@H]2CN(S(C)(=O)=O)C[C@H]2N)c2ccncc21,-,-13.38%
CCC(=O)N1CCN(S(=O)(=O)c2cccc(F)c2)[C@H]2CS(=O)(=O)C[C@H]21,0.2725%,-
Cn1cnc2c(N3CCCC3)nc(C3CCN(CC4CC4)CC3)cc21.O=C(O)C(F)(F)F.O=C(O)C(F)(F)F,-,-18.87%
Cc1noc(C)c1CN1CCc2ncc(CN3CCCC3)n2CC1,10.99%,-
Cc1csc(N2CCN(Cc3nccn3C)CC2C)n1 (stereo not drawn),12.72%,-3.494%
CN(CC(=O)NC1CC1)S(=O)(=O)c1ccc(F)cc1Cl,10.64%,-0.2035%
CN(Cc1nnc2n1CCC2)C(=O)c1ccc(=O)n(C)n1,17.73%,4.224%
O=C1NCC2(CCCN(CCc3ccccc3)C2)Oc2ccccc21 (stereo not drawn),4.452%,-13.27%
CC(C)Nc1nc2c(c(NC3CC3)n1)CCN(Cc1nccn1C)CC2,14.79%,-
CCN(Cc1cccc(F)c1)Cn1nc(C)c2c(C)onc2c1=O,20.51%,-3.884%

The last 4 entries again:

| SMILES | LdMetRS | Mtb heat-shock |
|---|---|---|
| `CN(Cc1nnc2n1CCC2)C(=O)c1ccc(=O)n(C)n1` | 17.73% | 4.224% |
| `O=C1NCC2(CCCN(CCc3ccccc3)C2)Oc2ccccc21` (stereo not drawn) | 4.452% | -13.27% |
| `CC(C)Nc1nc2c(c(NC3CC3)n1)CCN(Cc1nccn1C)CC2` | 14.79% | - |
| `CCN(Cc1cccc(F)c1)Cn1nc(C)c2c(C)onc2c1=O` | 20.51% | -3.884% |

Measurements from “University of Dundee, Small-Polar-MMV Screening Library” (2021), ChEMBL document CHEMBL3988442.